Article PMC8971431
These are yes or no findings as the source states them, for the method shown. Binding seen in cells or lysates may run through a third protein. Some results given as binding are weak or reduced against the parent protein; the word gives no strength. For part of these data: Sequences can lack the tags named with a protein. Blank lines part the entries; values can stand above or below the binder they belong to.

Columns and labels:
Myc-TAK1 (human) (human) = target: T1, Myc-TAK1 (human) (human) (UniProt O43318); test: co-IP; 293 T cells transfected with tagged constructs (Lipofectamine 2000), collected 48 h after transfection; IP with anti-Fg or anti-Myc, immunoblot
T1 sequence: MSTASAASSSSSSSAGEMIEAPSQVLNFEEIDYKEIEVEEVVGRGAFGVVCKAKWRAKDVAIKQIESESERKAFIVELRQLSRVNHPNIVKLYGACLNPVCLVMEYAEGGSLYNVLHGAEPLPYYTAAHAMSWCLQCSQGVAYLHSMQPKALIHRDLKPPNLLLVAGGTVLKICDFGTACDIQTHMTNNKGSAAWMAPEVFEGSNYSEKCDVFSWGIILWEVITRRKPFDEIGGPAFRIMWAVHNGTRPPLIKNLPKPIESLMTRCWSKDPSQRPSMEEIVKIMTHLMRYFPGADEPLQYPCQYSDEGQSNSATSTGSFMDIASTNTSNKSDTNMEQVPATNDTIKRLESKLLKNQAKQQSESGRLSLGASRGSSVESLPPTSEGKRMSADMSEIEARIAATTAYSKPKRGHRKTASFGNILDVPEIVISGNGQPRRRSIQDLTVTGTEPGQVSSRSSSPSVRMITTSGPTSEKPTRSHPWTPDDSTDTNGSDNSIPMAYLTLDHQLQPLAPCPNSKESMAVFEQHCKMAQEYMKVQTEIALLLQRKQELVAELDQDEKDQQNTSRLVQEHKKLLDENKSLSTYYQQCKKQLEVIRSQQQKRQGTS

[1] = target: T2, Fg-USP8 (human ubiquitin-specific protease 8) (human) (UniProt P40818); test: as above
T2 sequence: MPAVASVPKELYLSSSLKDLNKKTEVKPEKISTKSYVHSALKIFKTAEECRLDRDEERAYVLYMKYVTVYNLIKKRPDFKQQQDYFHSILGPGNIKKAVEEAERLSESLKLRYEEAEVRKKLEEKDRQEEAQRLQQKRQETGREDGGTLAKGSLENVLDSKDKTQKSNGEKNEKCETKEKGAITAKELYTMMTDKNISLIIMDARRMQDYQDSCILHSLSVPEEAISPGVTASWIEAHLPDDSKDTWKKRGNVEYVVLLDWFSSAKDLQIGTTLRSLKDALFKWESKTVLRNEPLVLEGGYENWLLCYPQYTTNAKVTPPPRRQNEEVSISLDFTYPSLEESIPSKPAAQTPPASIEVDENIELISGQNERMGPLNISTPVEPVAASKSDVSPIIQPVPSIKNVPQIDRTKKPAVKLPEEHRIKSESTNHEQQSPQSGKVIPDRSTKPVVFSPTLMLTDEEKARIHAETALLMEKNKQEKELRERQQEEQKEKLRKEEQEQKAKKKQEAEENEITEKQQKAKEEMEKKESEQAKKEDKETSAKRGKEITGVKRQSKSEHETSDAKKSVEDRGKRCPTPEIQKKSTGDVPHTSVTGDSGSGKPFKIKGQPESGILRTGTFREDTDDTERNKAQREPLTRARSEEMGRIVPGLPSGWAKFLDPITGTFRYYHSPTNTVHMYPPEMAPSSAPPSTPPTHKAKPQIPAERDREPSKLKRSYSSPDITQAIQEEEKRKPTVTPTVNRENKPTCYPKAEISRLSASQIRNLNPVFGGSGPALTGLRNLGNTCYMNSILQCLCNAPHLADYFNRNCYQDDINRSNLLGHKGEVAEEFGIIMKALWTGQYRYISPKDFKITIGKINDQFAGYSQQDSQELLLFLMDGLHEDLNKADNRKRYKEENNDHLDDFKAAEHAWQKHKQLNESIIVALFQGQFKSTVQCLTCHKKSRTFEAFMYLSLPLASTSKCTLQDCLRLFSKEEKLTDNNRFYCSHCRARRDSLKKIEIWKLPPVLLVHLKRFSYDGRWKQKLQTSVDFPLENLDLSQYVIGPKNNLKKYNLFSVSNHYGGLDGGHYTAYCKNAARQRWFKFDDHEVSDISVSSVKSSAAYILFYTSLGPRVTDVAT

[2] = target: T3, endogenous USP8 (human breast cancer cells) (human (endogenous in breast cancer cells)) (UniProt P40818); test: co-IP; endogenous proteins in breast cancer cells; IP of USP8, blot for TAK1
T3 sequence: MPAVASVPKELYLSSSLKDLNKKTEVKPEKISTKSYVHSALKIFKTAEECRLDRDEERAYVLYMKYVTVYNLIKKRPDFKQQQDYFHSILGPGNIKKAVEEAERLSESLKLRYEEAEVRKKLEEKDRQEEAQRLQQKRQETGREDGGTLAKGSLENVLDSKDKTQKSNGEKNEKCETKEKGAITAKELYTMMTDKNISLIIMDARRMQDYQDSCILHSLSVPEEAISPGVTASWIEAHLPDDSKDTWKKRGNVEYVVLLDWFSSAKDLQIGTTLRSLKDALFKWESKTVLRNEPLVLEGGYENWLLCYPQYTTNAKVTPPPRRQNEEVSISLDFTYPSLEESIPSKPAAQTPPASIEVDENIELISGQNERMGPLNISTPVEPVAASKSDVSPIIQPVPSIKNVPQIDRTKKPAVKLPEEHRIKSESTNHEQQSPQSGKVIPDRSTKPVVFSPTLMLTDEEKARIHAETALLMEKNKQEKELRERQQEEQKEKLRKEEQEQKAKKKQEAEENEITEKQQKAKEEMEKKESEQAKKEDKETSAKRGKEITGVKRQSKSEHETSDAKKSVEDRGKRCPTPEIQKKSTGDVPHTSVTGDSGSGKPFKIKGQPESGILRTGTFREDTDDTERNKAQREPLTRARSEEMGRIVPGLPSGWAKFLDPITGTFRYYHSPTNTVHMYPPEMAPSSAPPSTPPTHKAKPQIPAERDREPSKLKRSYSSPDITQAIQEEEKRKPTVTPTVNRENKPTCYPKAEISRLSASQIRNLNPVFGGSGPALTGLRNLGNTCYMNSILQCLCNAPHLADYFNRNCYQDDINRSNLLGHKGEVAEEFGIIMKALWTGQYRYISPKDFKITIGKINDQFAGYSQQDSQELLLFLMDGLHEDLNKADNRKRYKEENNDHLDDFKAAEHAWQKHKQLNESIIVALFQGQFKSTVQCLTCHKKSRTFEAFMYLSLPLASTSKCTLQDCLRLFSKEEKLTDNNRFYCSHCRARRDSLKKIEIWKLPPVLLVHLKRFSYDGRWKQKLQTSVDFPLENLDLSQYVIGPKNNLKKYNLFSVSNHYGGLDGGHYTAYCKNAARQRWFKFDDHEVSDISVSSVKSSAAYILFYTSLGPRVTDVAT

binding (Myc-TAK1 (human) (human)): binds
B1: Fg-USP8 (human ubiquitin-specific protease 8) (enzyme, UniProt P40818 1-1118)
chain: MPAVASVPKELYLSSSLKDLNKKTEVKPEKISTKSYVHSALKIFKTAEECRLDRDEERAYVLYMKYVTVYNLIKKRPDFKQQQDYFHSILGPGNIKKAVEEAERLSESLKLRYEEAEVRKKLEEKDRQEEAQRLQQKRQETGREDGGTLAKGSLENVLDSKDKTQKSNGEKNEKCETKEKGAITAKELYTMMTDKNISLIIMDARRMQDYQDSCILHSLSVPEEAISPGVTASWIEAHLPDDSKDTWKKRGNVEYVVLLDWFSSAKDLQIGTTLRSLKDALFKWESKTVLRNEPLVLEGGYENWLLCYPQYTTNAKVTPPPRRQNEEVSISLDFTYPSLEESIPSKPAAQTPPASIEVDENIELISGQNERMGPLNISTPVEPVAASKSDVSPIIQPVPSIKNVPQIDRTKKPAVKLPEEHRIKSESTNHEQQSPQSGKVIPDRSTKPVVFSPTLMLTDEEKARIHAETALLMEKNKQEKELRERQQEEQKEKLRKEEQEQKAKKKQEAEENEITEKQQKAKEEMEKKESEQAKKEDKETSAKRGKEITGVKRQSKSEHETSDAKKSVEDRGKRCPTPEIQKKSTGDVPHTSVTGDSGSGKPFKIKGQPESGILRTGTFREDTDDTERNKAQREPLTRARSEEMGRIVPGLPSGWAKFLDPITGTFRYYHSPTNTVHMYPPEMAPSSAPPSTPPTHKAKPQIPAERDREPSKLKRSYSSPDITQAIQEEEKRKPTVTPTVNRENKPTCYPKAEISRLSASQIRNLNPVFGGSGPALTGLRNLGNTCYMNSILQCLCNAPHLADYFNRNCYQDDINRSNLLGHKGEVAEEFGIIMKALWTGQYRYISPKDFKITIGKINDQFAGYSQQDSQELLLFLMDGLHEDLNKADNRKRYKEENNDHLDDFKAAEHAWQKHKQLNESIIVALFQGQFKSTVQCLTCHKKSRTFEAFMYLSLPLASTSKCTLQDCLRLFSKEEKLTDNNRFYCSHCRARRDSLKKIEIWKLPPVLLVHLKRFSYDGRWKQKLQTSVDFPLENLDLSQYVIGPKNNLKKYNLFSVSNHYGGLDGGHYTAYCKNAARQRWFKFDDHEVSDISVSSVKSSAAYILFYTSLGPRVTDVAT

binding [1]: binds
B2: Myc-TAK1 (human) (enzyme, UniProt O43318 1-606)
chain: MSTASAASSSSSSSAGEMIEAPSQVLNFEEIDYKEIEVEEVVGRGAFGVVCKAKWRAKDVAIKQIESESERKAFIVELRQLSRVNHPNIVKLYGACLNPVCLVMEYAEGGSLYNVLHGAEPLPYYTAAHAMSWCLQCSQGVAYLHSMQPKALIHRDLKPPNLLLVAGGTVLKICDFGTACDIQTHMTNNKGSAAWMAPEVFEGSNYSEKCDVFSWGIILWEVITRRKPFDEIGGPAFRIMWAVHNGTRPPLIKNLPKPIESLMTRCWSKDPSQRPSMEEIVKIMTHLMRYFPGADEPLQYPCQYSDEGQSNSATSTGSFMDIASTNTSNKSDTNMEQVPATNDTIKRLESKLLKNQAKQQSESGRLSLGASRGSSVESLPPTSEGKRMSADMSEIEARIAATTAYSKPKRGHRKTASFGNILDVPEIVISGNGQPRRRSIQDLTVTGTEPGQVSSRSSSPSVRMITTSGPTSEKPTRSHPWTPDDSTDTNGSDNSIPMAYLTLDHQLQPLAPCPNSKESMAVFEQHCKMAQEYMKVQTEIALLLQRKQELVAELDQDEKDQQNTSRLVQEHKKLLDENKSLSTYYQQCKKQLEVIRSQQQKRQGTS

binding [2]: binds
B3: endogenous TAK1 (human breast cancer cells) (enzyme, UniProt O43318 1-606)
chain: MSTASAASSSSSSSAGEMIEAPSQVLNFEEIDYKEIEVEEVVGRGAFGVVCKAKWRAKDVAIKQIESESERKAFIVELRQLSRVNHPNIVKLYGACLNPVCLVMEYAEGGSLYNVLHGAEPLPYYTAAHAMSWCLQCSQGVAYLHSMQPKALIHRDLKPPNLLLVAGGTVLKICDFGTACDIQTHMTNNKGSAAWMAPEVFEGSNYSEKCDVFSWGIILWEVITRRKPFDEIGGPAFRIMWAVHNGTRPPLIKNLPKPIESLMTRCWSKDPSQRPSMEEIVKIMTHLMRYFPGADEPLQYPCQYSDEGQSNSATSTGSFMDIASTNTSNKSDTNMEQVPATNDTIKRLESKLLKNQAKQQSESGRLSLGASRGSSVESLPPTSEGKRMSADMSEIEARIAATTAYSKPKRGHRKTASFGNILDVPEIVISGNGQPRRRSIQDLTVTGTEPGQVSSRSSSPSVRMITTSGPTSEKPTRSHPWTPDDSTDTNGSDNSIPMAYLTLDHQLQPLAPCPNSKESMAVFEQHCKMAQEYMKVQTEIALLLQRKQELVAELDQDEKDQQNTSRLVQEHKKLLDENKSLSTYYQQCKKQLEVIRSQQQKRQGTS
